Results: article PMC10193966, “Structure of WNT inhibitor adenomatosis polyposis coli down-regulated 1 (APCDD1), a cell-surface lipid-binding protein” (Proceedings of the National Academy of Sciences of the …, 2023)
These are yes or no findings as the source states them, for the method shown. Some results given as binding are weak or reduced against the parent protein; the word gives no strength. Where a sequence is shown, tags or fusion partners need not be part of it.

Sequences of proteins named here, by UniProt entry; tags and fusion partners are left off. Residues count along the entry.
UniProt Q3U128, residues 27-492: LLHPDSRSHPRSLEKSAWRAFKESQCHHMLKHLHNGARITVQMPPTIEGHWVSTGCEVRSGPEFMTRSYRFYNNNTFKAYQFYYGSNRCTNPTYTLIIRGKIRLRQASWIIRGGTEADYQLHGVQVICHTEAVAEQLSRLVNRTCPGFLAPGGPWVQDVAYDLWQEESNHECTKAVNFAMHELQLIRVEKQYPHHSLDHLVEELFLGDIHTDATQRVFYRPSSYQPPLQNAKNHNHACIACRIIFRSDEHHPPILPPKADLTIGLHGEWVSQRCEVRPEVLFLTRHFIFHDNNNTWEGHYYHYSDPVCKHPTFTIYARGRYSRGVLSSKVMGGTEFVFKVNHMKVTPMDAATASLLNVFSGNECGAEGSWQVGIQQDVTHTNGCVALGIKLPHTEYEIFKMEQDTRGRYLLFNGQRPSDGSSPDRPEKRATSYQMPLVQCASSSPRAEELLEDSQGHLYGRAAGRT

Molecular target: APCDD1-mVenus fusion with a biotinylated C-terminal Avi tag (APCDD1-mV-Avi) (mouse) (UniProt Q3U128)
Experiment: AP-based binding assay (plate capture of a co-expressed complex); WNT7A co-expressed with the biotinylated bait in HEK293T; secreted complexes concentrated by IMAC, immobilised on streptavidin-coated wells at 4 °C overnight; captured WNT7A detected with anti-ALFA nanobody-AP and a colorimetric AP reaction; wash buffer 10 mM HEPES pH 7.5, 0.15 M NaCl, 0.05% Tween-20; also run with 1% DDM, 0.1% DDM or 2.25% Triton X-114 in all steps

B1: ALFA epitope-tagged WNT7A (ligand, UniProt O00755 32-349)
chain: LGASIICNKIPGLAPRQRAICQSRPDAIIVIGEGSQMGLDECQFQFRNGRWNCSALGERTVFGKELKVGSREAAFTYAIIAAGVAHAITAACTQGNLSDCGCDKEKQGQYHRDEGWKWGGCSADIRYGIGFAKVFVDAREIKQNARTLMNLHNNEAGRKILEENMKLECKCHGVSGSCTTKTCWTTLPQFRELGYVLKDKYNEAVHVEPVRASRNKRPTFLKIKKPLSYRKPMDTDLVYIEKSPNYCEEDPVTGSVGTQGRACNKTAPQASGCDLMCCGRGYNTHQYARVWQCNCKFHWCCYVKCNTCSERTEMYTCK
modifications: covalently linked palmitoleate (PAM)
  binding: binds
